PubChem BioAssay AID504791, Drosophila RNAi Screening Center, 2011
In all, the deposit lists about 23,000 reagents; below is a random part of those with a known target gene and a result. In the full data, 199 (0.86%) got an active call. 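Plate-scaled ratios behind the calls are not deposited; printed light signals are raw; many rows marked increased or decreased are still called inactive.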 Unmarked entries are inactive. A plus sign joins genes that one reagent is predicted to hit. Not stated in the record: the direction of the score.

Test: 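Genes whose knock-down strengthens or weakens small-RNA reporter silencing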 (primary screen)
Cells: Drosophila S2-derived reporter cells
Reagent: long dsRNA against Drosophila genes, about 150-250 ng dsRNA per well (siRNA assay); about 80-120 ng (miRNA assay)
Timing: about 5 days (siRNA assay); about 4 days (miRNA assay)
Conditions: copper sulfate induction of reporters: 25 µM (siRNA assay); 200 mM stated (miRNA assay), 1-2 days before reading
Measured: 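Dual luciferase assay: Renilla to firefly signal ratio in each well, scaled to the mean ratio of its plate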
Units: stable assay Renilla, run 1 in luminescence; stable assay firefly, run 1 in luminescence
Call rule: 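a well was a first-pass pick when its plate-scaled ratio rose above 1.5 (siRNA assay) or 1.6 (miRNA assay), or dropped below 0.6; a gene counted only if two separate dsRNAs agreed on retest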

| predicted target | DRSC id | miRNA reporter change | stable assay Renilla, run 1 | stable assay firefly, run 1 |
| --- | --- | --- | --- | --- |
| TAF1C-like (GeneID 37450) | DRSC04073 | – | 21064 | 6.24e5 |
| CG10376 (GeneID 35126) | DRSC02049 | – | 6759 | 1.08e6 |
| ND-B14 (GeneID 36159) | DRSC07029 | – | 5552 | 3.69e5 |
| CG9777 (GeneID 32633) | DRSC20208 | – | 6231 | 5.78e5 |
| cav (GeneID 42881) | DRSC15995 | – | 9522 | 3.43e5 |
| SPoCk (GeneID 40495) | DRSC11675 | – | 7494 | 4.35e5 |
| SPoCk (GeneID 40495) | DRSC11706 | reporter ratio raised past the hit cutoff | 7615 | 5.57e5 |
| SPoCk (GeneID 40495) | DRSC11844 | – | 7438 | 3.09e5 |
| SPoCk (GeneID 40495) | DRSC11845 | – | 7374 | 3.62e5 |
| mael (GeneID 40489) | DRSC11894 | – | 9279 | 3.31e5 |
| Glt (GeneID 34193) | DRSC03333 | reporter ratio lowered past the hit cutoff | 6918 | 7.29e5 |
| Six4 (GeneID 40297) | DRSC11881 | – | 6555 | 4.19e5 |
| CG17734 (GeneID 41359) | DRSC15256 | – | 3888 | 3.07e5 |
| CG13215 (GeneID 36182) | DRSC06337 | – | 7092 | 5.23e5 |
| CG3246 (GeneID 33564) | DRSC00584 | – | 8628 | 4.35e5 |
| S6KL (GeneID 45970) | DRSC19349 | – | 3267 | 4.16e5 |
| S6KL (GeneID 45970) | DRSC21578 | – | 8474 | 5.15e5 |
| S6KL (GeneID 45970) | DRSC23147 | – | 7619 | 4.99e5 |
| alpha-Cat (GeneID 40517) | DRSC11917 | – | 5388 | 3.51e5 |
| sage (GeneID 41105) | DRSC14580 | – | 5108 | 4.73e5 |
| Rca1 (GeneID 33959) | DRSC03407 | – | 8535 | 3.72e5 |
| Rab9Db + Rab9D + Rab9E | DRSC17656 | – | 4863 | 3.22e5 |
| laf (GeneID 40606) | DRSC12246 | – | 7427 | 4.68e5 |
| CG5116 (GeneID 43081) | DRSC15720 | – | 5487 | 5.60e5 |
| lectin-21Ca (GeneID 53552) | DRSC00541 | – | 7575 | 3.86e5 |
| CG30325 (GeneID 246541) | DRSC05685 | – | 5771 | 3.12e5 |
| CG34406 (retired record) (GeneID 33536) | DRSC00523 | – | 39764 | 1.75e5 |
| CG34406 (retired record) (GeneID 33536) | DRSC00606 | – | 7827 | 4.78e5 |
| CG8701 (GeneID 35812) | DRSC07237 | – | 8478 | 4.25e5 |
| CG18539 (GeneID 37096) | DRSC06766 | – | 6982 | 3.80e5 |
| CG13026 (GeneID 39868) | DRSC09906 | – | 7554 | 4.05e5 |
| Cyp6t2Psi (GeneID 3772355) | DRSC01840 | – | 6747 | 6.09e5 |
| AIMP3 (GeneID 246507) | DRSC04500 | – | 7166 | 5.22e5 |
| CG14219 (GeneID 32951) | DRSC19576 | – | 5320 | 4.35e5 |
| natalisin (GeneID 5740700) | DRSC14966 | – | 6231 | 3.18e5 |
| natalisin (GeneID 5740700) | DRSC14967 | – | 8101 | 6.43e5 |
| CG12689 (GeneID 31676) | DRSC17879 | – | 6982 | 3.44e5 |
| CG42758 (GeneID 10178900) | DRSC10021 | – | 6466 | 3.50e5 |
| Unc-115b + p24-2 + Unc-115a | DRSC16502 | – | 6999 | 3.99e5 |
| CG7101 (GeneID 32875) | DRSC20023 | – | 6642 | 3.54e5 |
| CG7101 (GeneID 32875) | DRSC22845 | – | 3808 | 4.11e5 |
| CG8320 + ATPCL | DRSC07147 | – | 6394 | 3.74e5 |
| BckdhB (GeneID 3355069) | DRSC21183 | – | 5104 | 3.58e5 |
| DIP-kappa (GeneID 318958) | DRSC01336 | – | 4179 | 3.17e5 |
| DIP-kappa (GeneID 318958) | DRSC01337 | – | 4243 | 3.39e5 |
| CG32248 (GeneID 317938) | DRSC08102 | – | 4607 | 3.68e5 |
| Taf10b + Taf10 | DRSC00793 | – | 8078 | 5.32e5 |
| Tsp68C (GeneID 117407) | DRSC09295 | – | 6743 | 6.40e5 |
| CG32221 (GeneID 317924) | DRSC09638 | – | 6079 | 3.00e5 |
| eIF2A (GeneID 40431) | DRSC11825 | – | 9093 | 2.91e5 |
| Cda4 (GeneID 33144) | DRSC20623 | – | 5083 | 3.05e5 |
| Cda4 (GeneID 33144) | DRSC20641 | – | 5139 | 3.19e5 |
| Cda4 (GeneID 33144) | DRSC20642 | – | 5532 | 3.57e5 |
| ITP (GeneID 37921) | DRSC04222 | – | 7578 | 4.19e5 |
| Sfxn2 (GeneID 40080) | DRSC10718 | – | 6883 | 4.26e5 |
| CG15020 (GeneID 38544) | DRSC08474 | – | 5299 | 3.97e5 |
| Csp (GeneID 40459) | DRSC11860 | – | 8826 | 3.54e5 |
